Results as given in article PMC6274817.
No constants are given. Whether binding was seen depends on the method and setting. Some entries that bind do so weakly or less than the wild type.

Molecular target: T1, rice heterotrimeric G protein β subunit, Gβ (rice (Oryza sativa)) (UniProt Q40687)
T1 sequence: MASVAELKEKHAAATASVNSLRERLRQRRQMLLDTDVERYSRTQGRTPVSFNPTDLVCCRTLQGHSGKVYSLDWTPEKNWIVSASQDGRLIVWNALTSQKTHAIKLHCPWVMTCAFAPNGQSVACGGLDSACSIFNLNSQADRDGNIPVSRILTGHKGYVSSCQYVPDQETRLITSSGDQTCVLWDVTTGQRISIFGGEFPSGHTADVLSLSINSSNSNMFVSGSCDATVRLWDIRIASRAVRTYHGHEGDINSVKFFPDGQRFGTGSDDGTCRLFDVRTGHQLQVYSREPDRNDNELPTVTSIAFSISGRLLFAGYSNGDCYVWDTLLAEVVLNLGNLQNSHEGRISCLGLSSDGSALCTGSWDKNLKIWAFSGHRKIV
Test: two-hybrid; yeast two-hybrid, data not shown; bait and prey not stated

| Binder | binding |
| --- | --- |
| rice heterotrimeric G protein γ4 subunit, Gγ4 (protein, UniProt Q67UU9 1-426) MGEEAVVMEAPRPKSPPRYPDLCGRRRMQLEVQILSREITFLKDELHFLEGAQPVSRSGCIKEINEFVGTKHDPLIPTKRRRHRSCRLFRWIGSKLCICISCLCYCCKCSPKCKRPRCLNCSCSSCCDEPCCKPNCSACCAGSCCSPDCCSCCKPNCSCCKTPSCCKPNCSCSCPSCSSCCDTSCCKPSCTCFNIFSCFKSLYSCFKIPSCFKSQCNCSSPNCCTCTLPSCSCKGCACPSCGCNGCGCPSCGCNGCGCPSCGCNGCGLPSCGCNGCGSCSCAQCKPDCGSCSTNCCSCKPSCNGCCGEQCCRCADCFSCSCPRCSSCFNIFKCSCAGCCSSLCKCPCTTQCFSCQSSCCKRQPSCCKCQSSCCEGQPSCCEGHCCSLPKPSCPECSCGCVWSCKNCTEGCRCPRCRNPCCLSGCLC | binds |
| truncated Gγ4 of the RGG4 mutant Dn1-1, Gγ4∆Cys (domain or fragment, UniProt Q67UU9 1-170) MGEEAVVMEAPRPKSPPRYPDLCGRRRMQLEVQILSREITFLKDELHFLEGAQPVSRSGCIKEINEFVGTKHDPLIPTKRRRHRSCRLFRWIGSKLCICISCLCYCCKCSPKCKRPRCLNCSCSSCCDEPCCKPNCSACCAGSCCSPDCCSCCKPNCSCCKTPSCCKPNC | binds |
